The test addresses GST-tagged wild-type β-catenin fusion protein (UniProt P35222). Description: pull-down; bead-bound GST-β-catenin constructs (20 uL) incubated with 500 µg protein of VDR145+/+ whole cell lysate for 4 hours at 4°C; three washes with cold RIPA buffer; western blot for TCF-4; only the target purified. (In general: A western blot detects proteins with antibodies after separation by electrophoresis.)

By UniProt entry, the sequences of proteins in these tests, tags left out.
UniProt P35222: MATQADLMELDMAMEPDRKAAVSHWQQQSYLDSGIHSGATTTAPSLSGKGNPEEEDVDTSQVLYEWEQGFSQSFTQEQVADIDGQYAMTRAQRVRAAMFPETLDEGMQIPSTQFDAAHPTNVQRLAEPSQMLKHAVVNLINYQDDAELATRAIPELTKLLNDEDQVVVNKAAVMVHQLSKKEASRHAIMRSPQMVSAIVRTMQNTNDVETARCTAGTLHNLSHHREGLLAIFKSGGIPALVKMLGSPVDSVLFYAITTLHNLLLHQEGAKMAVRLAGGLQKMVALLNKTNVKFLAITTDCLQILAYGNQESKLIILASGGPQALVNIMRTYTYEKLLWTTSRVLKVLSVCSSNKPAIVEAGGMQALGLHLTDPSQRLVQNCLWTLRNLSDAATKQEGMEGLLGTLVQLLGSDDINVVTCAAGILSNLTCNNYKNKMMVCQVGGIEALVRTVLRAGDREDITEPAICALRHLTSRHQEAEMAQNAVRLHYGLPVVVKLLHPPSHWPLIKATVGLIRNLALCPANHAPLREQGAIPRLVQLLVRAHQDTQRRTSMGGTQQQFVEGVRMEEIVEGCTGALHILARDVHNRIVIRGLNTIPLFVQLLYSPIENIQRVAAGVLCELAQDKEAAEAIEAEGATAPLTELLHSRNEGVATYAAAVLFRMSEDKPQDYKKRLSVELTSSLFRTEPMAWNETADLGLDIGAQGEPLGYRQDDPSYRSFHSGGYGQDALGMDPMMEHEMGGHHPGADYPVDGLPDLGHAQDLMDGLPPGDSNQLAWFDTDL
UniProt Q924A0: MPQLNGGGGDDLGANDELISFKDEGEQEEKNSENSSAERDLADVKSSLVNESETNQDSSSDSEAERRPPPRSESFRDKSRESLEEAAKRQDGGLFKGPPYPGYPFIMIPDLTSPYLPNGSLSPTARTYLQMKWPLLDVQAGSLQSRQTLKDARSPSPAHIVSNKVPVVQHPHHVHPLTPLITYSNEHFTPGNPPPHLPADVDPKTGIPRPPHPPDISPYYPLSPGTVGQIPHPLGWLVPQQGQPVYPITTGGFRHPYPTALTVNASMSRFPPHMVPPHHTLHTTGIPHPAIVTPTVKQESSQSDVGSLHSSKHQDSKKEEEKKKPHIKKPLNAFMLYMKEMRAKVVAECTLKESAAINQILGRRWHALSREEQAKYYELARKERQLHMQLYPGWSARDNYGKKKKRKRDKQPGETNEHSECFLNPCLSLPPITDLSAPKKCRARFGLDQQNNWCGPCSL

No constants are given. Whether binding was seen depends on the method and setting. In cells and extracts the contact can be indirect. Some entries that bind do so weakly or less than the wild type.

Data on one substance can be found in PMC2774944.

Take “TCF-4 (gene name TCF7L2) (from UniProt Q924A0 1-459)”: the binding result is “binds”.
